Assay results from PubChem BioAssay AID2685 (National Center for Advancing Translational Sciences (NCATS), 2010).
Some of the results follow. The main result of the screen is listed elsewhere. These columns were measured beside it and carry no call. Compounds called inactive in the main read-out are mostly missing here. The note in brackets gives the kind of curve behind each potency; many fits are weak.

Test: qHTS Assay for Lipid Storage Modulators in Drosophila S3 Cells;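 on cell number change: cells counted by Cell Tracker Red CMTPX staining in the red channel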
Details: BODIPY lipid droplet fluorescence, 18-24 h; for cell number change: measured here: cell count max response, cells fed with added oleic acid
In short: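 Drosophila S3 cells got compounds at several concentrations plus oleic acid (400 uM solution). Laser-scanning cytometry with 488 nm excitation read lipid droplets at 500-530 nm and cells at 575-640 nm. Percent activity was relative to 20 uM Triacsin C.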

[1] = measured here: cell number channel AC50, cells fed with added oleic acid
[2] = measured here: lipid fluorescence (Fed channel) AC50, cells fed with added oleic acid

SMILES	cell number change	AC50 [1]	AC50 [2]
CCN(CC)CCCn1c2c(c(SCC(=O)Nc3cccc(C(C)=O)c3)nc1=O)CCC2	-3.52%		
CCOc1ccc(/C=N/NC(=O)Cc2csc(Nc3cccc(C(F)(F)F)c3)n2)cc1	-92.8%	29.1 µM [falling, single point]	29.1 µM [falling, single point]
O=S1(=O)CC(O)C(NCc2ccco2)C1 (stereo not given)	-12.9%		29.1 µM [falling, single point]
COc1cc(CN2CCCCCC2)cc(Br)c1O	36.1%	0.184 µM [rising, full curve, poor fit]	
COc1ccc(NC(=O)COC(=O)c2cc(Cl)ccc2O)cc1S(=O)(=O)N1CCCCC1	1.38%		0.103 µM [rising, full curve, poor fit]
COc1ccc(C(=O)OCC#CCSc2nnc(-c3cccc4ccccc34)o2)cc1		0.13 µM [rising, full curve, poor fit]	0.146 µM [rising, full curve, poor fit]
Cc1ccc(C(C(=O)NC2CCCCC2)N(C(=O)c2csnn2)C2CC2)cc1 (stereo not given)	-17.9%		
O=c1c2cn(Cc3ccccc3)c3ccccc3c-2nn1Cc1ccc(F)cc1Cl	19.4%	7.31 µM [rising, single point]	
COCCCN1CN=C(Nc2nc3ccccc3o2)NC1	33.4%	5.8 µM [rising, partial curve, poor fit]	32.6 µM [rising, single point]
O=C(Nc1cc(Oc2ccccc2)cc([N+](=O)[O-])c1)C12CC3CC(C1)CC(n1cnc(Cl)n1)(C3)C2	0.0358%		10.3 µM [falling, single point]
CCN(CC)C(=O)CSc1nnc(-c2ccccc2)n1-c1ccccc1	63.1%	29.1 µM [rising, single point]	0.058 µM [falling, partial curve, poor fit]
CCCC(=O)Nc1cccc(C(=O)Nc2ccccc2OCC)c1	-6.05%		
CCCCN(CC)Cc1c(C)[nH]c2c(ccc3ccccc32)c1=O	-32.6%	32.6 µM [falling, single point]	
C#Cc1cccc(-n2nnc(C(C)=O)c2C)c1	-28.4%		32.6 µM [falling, single point]
O=C(NCC1CCCO1)/C(=C\c1ccc(Cl)cc1)NC(=O)c1ccccc1 (stereo not given)	-29.9%		
CC(O)C(NS(=O)(=O)c1ccc(Cl)cc1)C(=O)OCc1nnc(-c2ccccc2)o1 (stereo not given)	-50%		
Cc1ccc(/C=C2/NC(=O)N(Cc3ccccc3)C2=O)o1	26.2%		4.61 µM [rising, partial curve]
COc1ccc(CCNC(=O)CCCn2c(=O)c3cccn3c3cccnc32)c(OC)c1			13 µM [falling, partial curve]
Cc1cccc(N(CC(=O)NC2CCCCC2)C(=O)c2ccc(C)s2)c1	-19.8%		18.4 µM [falling, single point]

SMILES	cell number change	AC50 [1]	AC50 [2]
CCS(=O)(=O)N1CCC(NC(=O)C(Cc2ccc(OC)c(OC)c2)NC(C)=O)CC1 (stereo not given)	1.76%		1.16 µM [rising, partial curve]
Cc1coc2c1c(C)cc1oc(=O)c(CC(=O)NCCCCCC(=O)O)c(C)c12			0.58 µM [falling, single point]
CCCC(C)NC(=O)Cc1ccccc1[N+](=O)[O-] (stereo not given)	14.5%	0.291 µM [rising, full curve, poor fit]	14.6 µM [rising, single point]
O=C1c2cccc3cccc(c23)C(=O)N1CCCN1CCN(c2ccc(F)cc2)CC1	23.2%		0.651 µM [falling, partial curve, poor fit]
O=C(NCCO)c1cccc(Cl)c1			20.6 µM [falling, partial curve]
CC1(C)CC(n2c(=S)[nH]c3ccccc3c2=O)CCO1 (stereo not given)		2.31 µM [rising, single point]	
Cc1cccc(OCc2nnc(SCC(=O)N3CCN(c4ccccc4)CC3)o2)c1C	12.9%		0.0731 µM [rising, full curve, poor fit]
COc1cccc(C(C(=O)NC2CCCC2)N(C(=O)c2ccco2)c2ccccc2)c1OC (stereo not given)	-37.3%	0.206 µM [falling, full curve, poor fit]	6.51 µM [rising, single point]
Cc1ccccc1C(=O)N1CCN(c2ccc([N+](=O)[O-])c(NCc3ccco3)c2)CC1	-12.7%		
O=C(O)CSc1nnc(C2CC2)n1-c1ccccc1	9.64%		0.92 µM [falling, full curve, poor fit]
COc1ccc(C(C)C)cc1S(=O)(=O)N1CCC(C(=O)NCc2cccnc2)CC1		0.326 µM [rising, full curve]	29.1 µM [rising, single point]
CCO/N=C1\C(=O)N(c2ccccc2)c2ccccc21	-9.26%		
Nc1cc2c3c(cccc3c1)C(=O)N(CCN1CCCC1)C2=O	-24.4%		23.1 µM [falling, partial curve]
CCN(CC)S(=O)(=O)c1ccc(NC(=O)c2cc(=O)[nH]c3ccccc23)cc1	-16.9%	0.00461 µM [rising, full curve, poor fit]	2.91 µM [rising, single point]
COCCn1c(=O)[nH]c2cc(C(=O)N3CCN(c4ccccc4F)CC3)ccc2c1=O			10.3 µM [falling, partial curve]
CCOC(=O)C1=C(COC(=O)/C=C/c2ccc(OC)cc2)NC(=O)NC1C (stereo not given)	-19.9%		4.61 µM [rising, partial curve]
O=C(NNc1ccc(C(F)(F)F)cc1[N+](=O)[O-])c1ccc(NS(=O)(=O)c2ccc(F)cc2)cc1	-12.5%		
CCOC(=O)/C(=N\Nc1cc(Cl)ccc1Cl)N1CC(C)OC(C)C1 (stereo not given)	13.2%		13 µM [rising, partial curve]
O=C(CSc1nc2c([nH]c3ccccc32)c(=O)n1-c1cccc(Cl)c1)N1CCOCC1	-42.4%	13 µM [falling, partial curve]	16.4 µM [falling, single point]

Exported with bars between the fields: entries from further up.
SMILES | cell number change | AC50 [1] | AC50 [2]
COc1ccc(NC(=O)COC(=O)c2cc(Cl)ccc2O)cc1S(=O)(=O)N1CCCCC1 | 1.38% |  | 0.103 µM [rising, full curve, poor fit]
COc1ccc(C(=O)OCC#CCSc2nnc(-c3cccc4ccccc34)o2)cc1 |  | 0.13 µM [rising, full curve, poor fit] | 0.146 µM [rising, full curve, poor fit]
Cc1ccc(C(C(=O)NC2CCCCC2)N(C(=O)c2csnn2)C2CC2)cc1 (stereo not given) | -17.9% |  | 
O=c1c2cn(Cc3ccccc3)c3ccccc3c-2nn1Cc1ccc(F)cc1Cl | 19.4% | 7.31 µM [rising, single point] | 
COCCCN1CN=C(Nc2nc3ccccc3o2)NC1 | 33.4% | 5.8 µM [rising, partial curve, poor fit] | 32.6 µM [rising, single point]
O=C(Nc1cc(Oc2ccccc2)cc([N+](=O)[O-])c1)C12CC3CC(C1)CC(n1cnc(Cl)n1)(C3)C2 | 0.0358% |  | 10.3 µM [falling, single point]
CCN(CC)C(=O)CSc1nnc(-c2ccccc2)n1-c1ccccc1 | 63.1% | 29.1 µM [rising, single point] | 0.058 µM [falling, partial curve, poor fit]
